Reference: PMC6726423
Results are given in words; binding and its absence hold for the method and conditions named. In cells and extracts the contact can be indirect. Some entries that bind do so weakly or less than the wild type.

By UniProt entry, the sequences of proteins in these tests, tags left out. Where a name states a change or a piece, a line headed by the entry shows the natural chain unless it says otherwise. Residues count along the entry.
UniProt P06756: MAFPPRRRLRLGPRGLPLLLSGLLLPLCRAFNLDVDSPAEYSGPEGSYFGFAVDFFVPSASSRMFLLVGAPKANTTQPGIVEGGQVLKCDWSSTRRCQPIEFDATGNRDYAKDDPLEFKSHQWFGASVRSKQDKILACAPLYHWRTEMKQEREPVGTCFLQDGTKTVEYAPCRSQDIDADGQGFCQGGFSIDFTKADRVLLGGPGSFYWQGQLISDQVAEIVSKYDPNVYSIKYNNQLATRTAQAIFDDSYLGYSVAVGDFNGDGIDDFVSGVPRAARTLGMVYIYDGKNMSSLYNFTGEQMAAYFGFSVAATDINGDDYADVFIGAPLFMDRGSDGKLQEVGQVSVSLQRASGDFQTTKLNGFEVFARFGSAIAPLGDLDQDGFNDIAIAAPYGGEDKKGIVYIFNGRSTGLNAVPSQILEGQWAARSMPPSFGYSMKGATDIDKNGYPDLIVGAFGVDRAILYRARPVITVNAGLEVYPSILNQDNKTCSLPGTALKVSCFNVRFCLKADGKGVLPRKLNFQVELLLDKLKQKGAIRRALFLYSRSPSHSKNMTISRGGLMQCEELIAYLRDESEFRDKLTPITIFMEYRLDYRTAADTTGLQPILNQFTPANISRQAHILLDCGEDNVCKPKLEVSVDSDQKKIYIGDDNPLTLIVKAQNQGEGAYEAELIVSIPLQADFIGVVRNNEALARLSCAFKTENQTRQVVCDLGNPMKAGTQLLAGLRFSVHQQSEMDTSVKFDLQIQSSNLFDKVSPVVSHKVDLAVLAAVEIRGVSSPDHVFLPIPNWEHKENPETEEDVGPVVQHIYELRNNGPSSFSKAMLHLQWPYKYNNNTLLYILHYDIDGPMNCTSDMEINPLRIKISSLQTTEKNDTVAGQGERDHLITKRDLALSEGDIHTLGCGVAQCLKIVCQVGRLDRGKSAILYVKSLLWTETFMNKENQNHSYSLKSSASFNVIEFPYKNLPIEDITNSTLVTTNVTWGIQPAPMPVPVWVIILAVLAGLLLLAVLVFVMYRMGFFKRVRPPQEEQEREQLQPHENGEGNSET
UniProt P05106: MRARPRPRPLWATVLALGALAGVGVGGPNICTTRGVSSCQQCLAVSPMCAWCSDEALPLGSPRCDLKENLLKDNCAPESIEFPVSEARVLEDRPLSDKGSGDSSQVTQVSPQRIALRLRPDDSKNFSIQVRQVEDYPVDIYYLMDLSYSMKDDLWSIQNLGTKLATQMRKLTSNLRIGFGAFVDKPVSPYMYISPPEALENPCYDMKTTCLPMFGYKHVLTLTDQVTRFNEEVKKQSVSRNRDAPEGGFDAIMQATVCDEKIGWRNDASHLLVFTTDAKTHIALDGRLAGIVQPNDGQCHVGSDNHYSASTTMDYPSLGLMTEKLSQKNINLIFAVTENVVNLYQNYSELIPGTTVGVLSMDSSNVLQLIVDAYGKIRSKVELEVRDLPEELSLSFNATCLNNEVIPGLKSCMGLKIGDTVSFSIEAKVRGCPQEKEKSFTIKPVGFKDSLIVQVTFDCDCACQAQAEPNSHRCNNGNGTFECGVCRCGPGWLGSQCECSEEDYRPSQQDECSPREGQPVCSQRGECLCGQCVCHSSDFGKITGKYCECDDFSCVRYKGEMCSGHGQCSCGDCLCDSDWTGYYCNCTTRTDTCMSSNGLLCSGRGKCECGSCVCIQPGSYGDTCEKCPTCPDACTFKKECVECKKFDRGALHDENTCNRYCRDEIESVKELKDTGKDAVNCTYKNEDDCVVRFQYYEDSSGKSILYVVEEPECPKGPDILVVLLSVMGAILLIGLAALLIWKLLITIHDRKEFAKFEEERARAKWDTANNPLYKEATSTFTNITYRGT
UniProt P35968, residues 20-1356: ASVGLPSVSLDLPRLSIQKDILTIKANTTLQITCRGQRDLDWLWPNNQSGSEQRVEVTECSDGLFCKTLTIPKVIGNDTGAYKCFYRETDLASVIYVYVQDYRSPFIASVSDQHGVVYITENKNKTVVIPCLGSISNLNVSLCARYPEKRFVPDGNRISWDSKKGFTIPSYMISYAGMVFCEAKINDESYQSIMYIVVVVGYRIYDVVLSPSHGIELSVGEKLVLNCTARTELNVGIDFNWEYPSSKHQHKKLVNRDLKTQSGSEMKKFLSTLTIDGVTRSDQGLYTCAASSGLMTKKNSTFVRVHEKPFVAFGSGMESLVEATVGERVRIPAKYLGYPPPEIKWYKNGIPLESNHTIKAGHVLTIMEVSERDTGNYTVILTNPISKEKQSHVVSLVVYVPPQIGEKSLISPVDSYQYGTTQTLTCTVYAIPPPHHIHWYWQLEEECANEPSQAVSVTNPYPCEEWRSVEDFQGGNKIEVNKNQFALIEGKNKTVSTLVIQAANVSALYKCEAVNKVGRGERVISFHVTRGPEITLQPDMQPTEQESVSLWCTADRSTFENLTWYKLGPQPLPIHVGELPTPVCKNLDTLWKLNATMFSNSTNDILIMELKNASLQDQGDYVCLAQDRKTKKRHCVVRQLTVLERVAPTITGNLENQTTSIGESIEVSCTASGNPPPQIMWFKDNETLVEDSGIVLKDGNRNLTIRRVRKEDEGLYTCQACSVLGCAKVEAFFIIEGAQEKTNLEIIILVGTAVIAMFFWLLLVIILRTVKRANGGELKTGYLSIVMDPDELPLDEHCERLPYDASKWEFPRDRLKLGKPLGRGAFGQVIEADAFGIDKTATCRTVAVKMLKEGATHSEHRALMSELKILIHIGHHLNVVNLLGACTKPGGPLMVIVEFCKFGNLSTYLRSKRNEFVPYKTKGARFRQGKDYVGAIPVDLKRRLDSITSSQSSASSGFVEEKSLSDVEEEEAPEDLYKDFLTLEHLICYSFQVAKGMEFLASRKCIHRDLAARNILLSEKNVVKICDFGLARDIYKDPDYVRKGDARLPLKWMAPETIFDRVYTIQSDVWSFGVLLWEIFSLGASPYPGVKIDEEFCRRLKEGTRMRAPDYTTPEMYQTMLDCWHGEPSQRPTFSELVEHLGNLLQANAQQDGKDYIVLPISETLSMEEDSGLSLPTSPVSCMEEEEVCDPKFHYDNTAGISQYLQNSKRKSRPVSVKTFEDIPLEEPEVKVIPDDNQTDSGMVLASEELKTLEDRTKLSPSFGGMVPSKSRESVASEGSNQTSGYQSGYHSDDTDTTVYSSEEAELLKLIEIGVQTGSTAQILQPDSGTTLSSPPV

Legend:
[1] = molecular target: T1, integrin αvβ3 (human (endogenous in HUVEC)) (UniProt P06756+P05106); test: proximity ligation; in situ PLA on PFA-fixed HUVECs treated with CCN1; anti-VEGFR2, anti-CCN1 and anti-integrin β3 antibodies; red dots per cell counted; only the binder purified
[2] = molecular target: vascular endothelial growth factor receptor 2 (VEGFR2) (human (endogenous in HUVEC)) (UniProt P35968); test: as above
[3] = molecular target: T1, integrin αvβ3 (human (endogenous in HUVEC)); test: co-IP; HUVECs treated with recombinant CCN1 (10 ng/mL) for 24 hr, with or without cyclo(RGDfK) (1 ug/mL); IP and immunoblotting; the precipitating antibody is not told; only the binder purified
[4] = molecular target: vascular endothelial growth factor receptor 2 (VEGFR2) (human (endogenous in HUVEC)) (UniProt P35968); test: as above

Measured: binding

B1: CCN1 (cysteine-rich angiogenic inducer 61), recombinant protein (ligand, UniProt O00622 25-381)
chain: TCPAACHCPLEAPKCAPGVGLVRDGCGCCKVCAKQLNEDCSKTQPCDHTKGLECNFGASSTALKGICRAQSEGRPCEYNSRIYQNGESFQPNCKHQCTCIDGAVGCIPLCPQELSLPNLGCPNPRLVKVTGQCCEEWVCDEDSIKDPMEDQDGLLGKELGFDASEVELTRNNELIAVGKGSSLKRLPVFGMEPRILYNPLQGQKCIVQTTSWSQCSKTCGTGISTRVTNDNPECRLVKETRICEVRPCGQPVYSSLKKGKKCSKTKKSPEPVRFTYAGCLSVKKYRPKYCGSCVDGRCCTPQLTRTVKMRFRCEDGETFSKNVMMIQSCKCNYNCPHANEAAFPFYRLFNDIHKFRD
binds: all assays above
